{"source": "PubChem BioAssay AID743454 (Peter MacCallum Cancer Centre, 2014)", "screen": "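Genes whose loss kills vorinostat-resistant colon cancer cells under vorinostat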 (primary screen)", "system": "human HCT116-VR colon cancer cells, selected for vorinostat resistance", "reagents": "siRNA pool against human genes, 40 nM siRNA pool", "timing": "vorinostat for 24 h, read-out about 72 h after transfection", "conditions": "vorinostat at 2.5 µM final", "read-out": "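Two measures, CellTiter-Fluor viability and luminescent caspase 3/7 activity, each as fold change against same-plate mock wells, mean of duplicates, then screen-wide robust z-score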", "scale": "viability robust z-score: higher = more viable cells than screen typical; caspase robust z-score: higher = more caspase 3/7 activity than screen typical", "rule for the call": "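a knock-down is a hit when classed RV1 or RV2 for lowered viability, or CA1 or CA2 for caspase activation; those lethal without drug were dropped; hits were retested singly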", "note": "This is a random part of about 18,000 reagents tested. 450 of them (2.5%) were called active. 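Single biological run; no consistent viability z cut-off exists, so the class columns, not z-scores, define the calls.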 A number with no mark means an inactive call. Reagent sequences are not shown."}
{"gene":"DDX20 (GeneID 11218)","viability hit class":"no change","caspase hit class":"no change","viability robust z-score":-0.4,"caspase robust z-score":-0.14}
{"gene":"CDH10 (GeneID 1008)","viability hit class":"no change","caspase hit class":"no change","viability robust z-score":0.95,"caspase robust z-score":-0.33}
{"gene":"GPR87 (GeneID 53836)","viability hit class":"no change","caspase hit class":"no change","viability robust z-score":0.24,"caspase robust z-score":1.62}
{"gene":"NEUROG2 (GeneID 63973)","viability hit class":"no change","caspase hit class":"no change","viability robust z-score":0.78,"caspase robust z-score":0.48}
{"gene":"JSRP1 (GeneID 126306)","viability hit class":"no change","caspase hit class":"no change","viability robust z-score":0.5,"caspase robust z-score":-1.01}
{"gene":"GIT2 (GeneID 9815)","viability hit class":"no change","caspase hit class":"no change","viability robust z-score":-0.24,"caspase robust z-score":-0.8}
{"gene":"SLC2A11 (GeneID 66035)","viability hit class":"no change","caspase hit class":"no change","viability robust z-score":-0.63,"caspase robust z-score":3.09}
{"gene":"PHYH (GeneID 5264)","viability hit class":"no change","caspase hit class":"no change","viability robust z-score":-0.32,"caspase robust z-score":-0.76}
{"gene":"APOC3 (GeneID 345)","viability hit class":"no change","caspase hit class":"no change","viability robust z-score":-0.5,"caspase robust z-score":-0.55}
{"gene":"SPRYD3 (GeneID 84926)","viability hit class":"no change","caspase hit class":"no change","viability robust z-score":-1.06,"caspase robust z-score":-0.4}
{"gene":"UPK2 (GeneID 7379)","viability hit class":"no change","caspase hit class":"no change","viability robust z-score":0.08,"caspase robust z-score":0.1}
{"gene":"LAMC1 (GeneID 3915)","viability hit class":"no change","caspase hit class":"no change","viability robust z-score":0.88,"caspase robust z-score":-0.58}
{"gene":"SERHL2 (GeneID 253190)","viability hit class":"no change","caspase hit class":"no change","viability robust z-score":0.62,"caspase robust z-score":0.62}
{"gene":"ZDHHC19 (GeneID 131540)","viability hit class":"no change","caspase hit class":"no change","viability robust z-score":-0.54,"caspase robust z-score":-0.73}

2 entries already listed, arranged by “viability robust z-score”, ascending:
{"gene":"SLC2A11 (GeneID 66035)","viability hit class":"no change","caspase hit class":"no change","viability robust z-score":-0.63,"caspase robust z-score":3.09}
{"gene":"GIT2 (GeneID 9815)","viability hit class":"no change","caspase hit class":"no change","viability robust z-score":-0.24,"caspase robust z-score":-0.8}
